Results: PMC13090976 (Cell Stress & Chaperones, 2026)
No constants are given. Whether binding was seen depends on the method and setting. Some binding calls cover weakened binding; strength is not graded here.

By UniProt entry, the sequences of proteins in these tests, tags left out. Where a name states a change or a piece, a line headed by the entry shows the natural chain unless it says otherwise.
UniProt Q9UNE7: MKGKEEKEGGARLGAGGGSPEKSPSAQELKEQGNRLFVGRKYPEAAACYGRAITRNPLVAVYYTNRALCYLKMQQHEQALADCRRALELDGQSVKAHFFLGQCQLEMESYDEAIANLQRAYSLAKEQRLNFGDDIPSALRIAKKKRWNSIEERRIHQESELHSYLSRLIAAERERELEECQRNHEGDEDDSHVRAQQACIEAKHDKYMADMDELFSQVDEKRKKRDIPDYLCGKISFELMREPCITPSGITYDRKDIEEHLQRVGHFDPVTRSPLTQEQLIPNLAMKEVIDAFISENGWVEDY

Tests used:
[1] = target: T1, FITC-Ahx-GSGP(pT)IEEVD (human); test: fluorescence polarisation; FITC-labelled peptide at 20 nM, recombinant CHIP constructs added at varied concentrations, 30 min at room temperature; one-site total binding fit, normalised to % of maximum binding; both purified
T1 sequence (peptide, FITC-Ahx on the N-terminus; phosphothreonine (pT; Thr636 in HSPA1A numbering)): GSGPTIEEVD

[2] = target: T2, FITC-Ahx-… (human); test: as above
T2 sequence (peptide, FITC-Ahx on the N-terminus): GSGPTIEEVD

[3] = target: T3, HSP70 C-terminal octapeptide, phosphorylated at Thr636 (GP(pT)IEEVD) (human); test: crystal structure; co-crystallisation of CHIP-TPR with peptide at 3:1 peptide:protein, 7 mg/ml total, sitting drop vapor diffusion at room temperature; 0.2 M lithium sulfate, 0.1 M Tris-HCl pH 8.5, 30% PEG 4000; both purified
T3 sequence (peptide, phosphothreonine at 636 (pT, HSPA1A numbering)): GPTIEEVD

Row | Substance | binding [1] | binding [2] | binding [3]
1 | full-length CHIP K30A (from UniProt Q9UNE7 1-303) | no binding | no binding | –
2 | human CHIP-TPR (residues 21-154) (from UniProt Q9UNE7 21-154) (domain or fragment) | – | – | binds
